# Results from PubChem BioAssay AID504834 (National Center for Advancing Translational Sciences (NCATS), 2011).
# The whole screen tested about 320,000 compounds, of which about 22,000 (6.9%) were called active. The shares of active, inactive and inconclusive entries below differ from those in the screen. Calls come from the whole dose curve; as a rule, active = well fitted inhibition curve with a large enough effect; inconclusive = small, poorly fitted or top-dose-only effect, or another doubt; inactive = no such curve, though single readings can be large or run the other way. Where the call is inconclusive, the potency comes from a doubtful curve fit.
# Experiment: Primary qHTS for delayed death inhibitors of the malarial parasite plastid, 96 hour incubation
# Settings: P. falciparum luciferase reporter growth; series mostly up to 28.7 µM
# In short: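 Parasite growth measured via integrated firefly luciferase reporter in P. falciparum. Infected erythrocytes at 2% hematocrit, 0.05% parasitemia final were treated 96 hours at 37 C under 5% CO2, and luminescence was read.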
# Potency is the fitted concentration of half-maximal effect.
row,Compound,Potency
1,CCOC(=O)C1CCN(C(=O)c2cc(OCC)c(OCC)c(OCC)c2)CC1,inactive
2,Cc1ccc(CN2CCCN(C)CC2)c(C)c1,inactive
3,Cc1cc(NC(=O)COC(=O)C(Nc2ccc(C(F)(F)F)cc2Cl)C(C)C)no1 (configuration not stated),"inconclusive: 18.5 µM [inhibitor, single point]"
4,Cc1ccccc1OCCNC(=O)CSc1ccc(C(F)(F)F)cc1[N+](=O)[O-],"inconclusive: 7.38 µM [inhibitor, partial curve, poor fit]"
5,COC(=O)c1c(C)oc2ccc(N(C(=O)Oc3ccccc3)S(=O)(=O)c3ccccc3)cc12,"inconclusive: 18.5 µM [inhibitor, single point]"
6,CC(C)OC(=O)CC12CN(C)CC(CC(=O)OC(C)C)(CN(C)C1)C2=O,"inconclusive: 11.7 µM [inhibitor, partial curve]"
7,COc1ccc(C(=O)CN2C(=O)c3ccccc3S2(=O)=O)cc1Br,"inconclusive: 16.5 µM [inhibitor, single point]"
8,CCOC(=O)/C(C#N)=C/Nc1ccccc1NS(=O)(=O)c1ccc2c(c1)OCCO2,active: 11.7 µM
9,Cc1cccc(C)c1OCCn1nnc2ccccc21,"inconclusive: 2.33 µM [inhibitor, single point]"
10,CCN(CC(=O)Nc1c(F)cccc1F)C(=O)CCCc1nc2ccccc2c(=O)[nH]1,"inconclusive: 18.5 µM [inhibitor, single point]"
11,Cc1ccc(C(C)C)c(OCC(=O)Nc2ccc(Cl)cn2)c1,inactive
12,NS(=O)(=O)c1ccc(-c2ccc(/C=C3\SC(=S)N(C4CCS(=O)(=O)C4)C3=O)o2)cc1 (configuration not stated),"inconclusive: 7.38 µM [inhibitor, partial curve, poor fit]"
13,Cc1nn(C(=O)N(C)C)c(C)c1CN1C(=O)c2ccccc2C1=O,"inconclusive: 2.62 µM [inhibitor, partial curve, poor fit]"
14,Cc1nc(-n2[nH]c3c(c2=O)CCCC3)[nH]c(=O)c1Cc1ccccc1,"inconclusive: 0.928 µM [inhibitor, partial curve, poor fit]"
15,CCOC(=O)c1ccc(-n2[nH]c(-c3ccccc3)cc2=O)cc1,"inconclusive: 18.5 µM [inhibitor, single point]"
16,CCCS(=O)(=O)N1CCCC(C(=O)NCCc2cccc(C)c2)C1 (configuration not stated),"inconclusive: 0.738 µM [inhibitor, partial curve, poor fit]"
17,CCCC(=O)Nc1ccc2oc(-c3ccncc3)nc2c1,"inconclusive: 18.5 µM [inhibitor, single point]"
18,Cc1c(NC(=O)COC(=O)c2ccc(Br)o2)c(=O)n(-c2ccccc2)n1C,inactive
19,COc1cccc(/C=N/Nc2nc3ccccc3[nH]2)c1OC,active: 10.4 µM
20,COc1cc(/C=N/Nc2ccc(C(F)(F)F)cn2)ccc1O,inactive
21,O=C(Cn1cc(S(=O)(=O)Cc2ccc([N+](=O)[O-])cc2)c2ccccc21)N1CCOCC1,"inconclusive: 13.1 µM [inhibitor, single point]"

row,Compound,Potency
1,Cc1nn(C)cc1-c1n[nH]c(=S)n1-c1ccc(Cl)cc1,"inconclusive: 6.57 µM [inhibitor, partial curve]"
2,O=C1[C@@H]2[C@@H]3C[C@@H]([C@H]4ON=C(c5ccc(Cl)cc5Cl)[C@@H]34)[C@@H]2C(=O)N1C1CCCCC1,"inconclusive: 8.28 µM [inhibitor, partial curve]"
3,CC(C)(C)C(=O)NC(=S)Nc1cc(C(F)(F)F)ccc1N1CCOCC1,"inconclusive: 11.7 µM [inhibitor, single point]"
4,COc1cc(NC(=O)C2CCCN(S(=O)(=O)c3cccc4nsnc34)C2)cc(OC)c1 (configuration not stated),inactive
5,CCC(C)NCCOCCOc1ccc(Br)cc1 (configuration not stated),"inconclusive: 9.28 µM [inhibitor, single point]"
6,CC1CCCC(NC(=O)C2CCC(CNc3c(N4CCCCC4)c(=O)c3=O)CC2)C1C (configuration not stated),"inconclusive: 1.65 µM [inhibitor, single point]"
7,O=C(NCCC1CCCCN1S(=O)(=O)c1ccccc1)C(=O)NCc1ccccc1F (configuration not stated),"inconclusive: 14.7 µM [inhibitor, single point]"
8,OCCC1CN(Cc2ccccc2-c2ccco2)CCN1C1CCCC1 (configuration not stated),"inconclusive: 18.5 µM [inhibitor, single point]"
9,CC(=O)N(/N=C/c1cccc(C)c1)c1nc(-c2ccc(Br)cc2)cs1,active: 11.7 µM
10,COc1cc(CN2CCCC(CO)(Cc3ccccc3)C2)ccc1O (configuration not stated),active: 10.4 µM
11,O=C(COC(=O)CCNS(=O)(=O)c1ccc2c(c1)OCCO2)NC1CCCc2ccccc21 (configuration not stated),"inconclusive: 11.7 µM [inhibitor, partial curve, poor fit]"
12,COc1cc(-n2c(=S)[nH]c3ccc(C)cc3c2=O)c(Cl)cc1Cl,"inconclusive: 13.1 µM [inhibitor, partial curve, poor fit]"
13,COc1cc(/C=N/NC(=O)CCOc2ccccc2C)cc(Br)c1O,"inconclusive: 13.1 µM [inhibitor, single point]"
14,COc1ccc(-c2cc(-c3ccccc3)[n+](C)c(-c3ccccc3)c2)cc1,"inconclusive: 0.37 µM [inhibitor, full curve, poor fit]"
15,CN(CCCNC(=O)Cn1c(=O)c2cccn2c2ccccc21)Cc1ccccc1,"inconclusive: 0.0928 µM [inhibitor, full curve, poor fit]"
16,CCOC(=O)c1c(-c2ccc(C)o2)csc1NC(=O)CN1CCOCC1,"inconclusive: 16.5 µM [inhibitor, partial curve, poor fit]"
17,COc1ccc(C2NC(=S)NC3=C2CCc2cc(OC)ccc23)cc1 (configuration not stated),active: 5.86 µM
18,COc1cccc(CC2(CO)CCN(Cc3cnc(-c4cccc(C)c4)nc3)CC2)c1,"inconclusive: 13.1 µM [inhibitor, single point]"
19,C=CCNc1c2c(nc3nnnn13)CCCC2,inactive
20,Cc1cccc(N2CCN(C(=S)NCc3ccco3)CC2)c1C,"inconclusive: 11.7 µM [inhibitor, single point]"
21,CCCCC1CN2CCc3c([nH]c4ccccc34)C2(C)C1 (configuration not stated),inactive

# No new results follow: entries from further up.
row,Compound,Potency
5,COC(=O)c1c(C)oc2ccc(N(C(=O)Oc3ccccc3)S(=O)(=O)c3ccccc3)cc12,"inconclusive: 18.5 µM [inhibitor, single point]"
6,CC(C)OC(=O)CC12CN(C)CC(CC(=O)OC(C)C)(CN(C)C1)C2=O,"inconclusive: 11.7 µM [inhibitor, partial curve]"
7,COc1ccc(C(=O)CN2C(=O)c3ccccc3S2(=O)=O)cc1Br,"inconclusive: 16.5 µM [inhibitor, single point]"
